Percent effect of library compounds

The values are deposited in ChEMBL (CHEMBL3988442, “University of Dundee, Small-Polar-MMV Screening Library” (2021)).

Results are given as percent effect. How 0% and 100% were set is not recorded. Most values in the screen are low, and negative values occur. The compounds are a random part of those screened. A dash means the value is not listed here; it may have been measured.

A: 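Whole-parasite assay of Trypanosoma brucei over 72 hours; the read-out is not stated. Compounds at 30 µM. The record gives no direction; compounds that gave an IC50 in retests scored well above the rest, so higher reads as stronger inhibition. Values scatter widely below zero; nearly all retest evidence comes from the higher of the two concentrations used. Of about 64,000 compounds tested this way, about 940 (1.5%) reached 50% or more in at least one test.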
B: 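Cell assay of Leishmania donovani living inside macrophages; the read-out is not stated. Concentration: 30 µM. Direction is inferred from retests: higher values go with stronger inhibition. Size under these conditions: about 69,000 compounds, about 1,000 of them at 50% or above in at least one test.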
C: 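Assay of Toxoplasma gondii numbers, read through their beta-galactosidase reporter with a colour substrate. Concentration: 10 µM. Higher reads as fewer parasites (inferred from which compounds were picked for retests). Of about 67,000 compounds tested this way, about 260 (0.38%) reached 50% or more in at least one test.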

{"compound": "CC(=O)c1cc(CC(=O)NCc2ccsc2)cs1", "A": -17.41, "B": 7.814, "C": -12.22}
{"compound": "Cc1nccn1-c1ccc(CNS(=O)(=O)N2CCCC(C)C2)cn1", "stereo": "centres undefined", "A": -2.8, "B": 2.162, "C": 0.4528}
{"compound": "O=C(Cn1cc(I)cn1)N1CCc2ccccc2C1", "A": -13.21, "B": -23.88, "C": -2.75}
{"compound": "Cc1nn(C)c(C)c1CN(C(=O)c1cnc(O)cn1)C(C)C", "A": -8.366, "B": 15.14, "C": -2.854}
{"compound": "O=C(O)C(F)(F)F.[H][C@@]12CCN(C(C)=O)C[C@]1(C(=O)NCCc1ccccn1)CCO2", "A": -18.51, "B": -0.5887, "C": -6.472}
{"compound": "O=C(Nc1ccccn1)NC1CCN(c2ccccc2OC(F)F)C1", "stereo": "centres undefined", "A": -33.53, "B": 48.1, "C": 20.62}
{"compound": "O=C(Nc1ccc(F)c(Cl)c1)N1CCCN([C@H]2COC[C@@H]2O)CC1", "A": -13.43, "B": 3.854, "C": -7.343}
{"compound": "Cc1nc(C(C)(C)NC(=O)Nc2ccncc2)no1", "A": -43.29, "B": 28.11, "C": -0.6321}
{"compound": "CN(Cc1cc(C(C)(C)C)n[nH]1)Cc1c[nH]nc1-c1ccc(F)cc1", "A": -26.79, "B": 19.43, "C": -2.426}
{"compound": "CCc1c(C)nc2cc(C3CCN(Cc4cccnc4)C3)nn2c1O", "stereo": "centres undefined", "A": 7.415, "B": 9.097, "C": 13.35}
{"compound": "NC(=O)c1cc(C2CCCN(C(=O)CCc3cccs3)C2)n[nH]1", "stereo": "centres undefined", "B": -12.61, "C": 4.084}
{"compound": "CN(C)C(=O)c1ccc(C(C(=O)O)N(C)Cc2ccccc2Cl)cc1", "stereo": "centres undefined", "B": 23.37, "C": 9.413}
{"compound": "CCOC(=O)N1CCCn2nc(C(=O)NCCN(C)C)cc2C1", "A": -39.48, "B": 18.87, "C": 4.783}
{"compound": "Fc1cccc(Cl)c1CNCCCOc1ccccn1", "A": 14.74, "B": -24.67, "C": 14.71}
{"compound": "COc1ccc(C(C)N(C)Cc2c(C3CC3)[nH]c3ncccc23)cc1.Cl", "stereo": "centres undefined", "A": 7.112, "B": 16.26, "C": 65.16}
{"compound": "CCN1CCC(CNc2nccc(C)n2)(N(C)C)CC1", "A": -10.56, "B": 16.52, "C": -10.99}
{"compound": "Cc1ccc(S(=O)(=O)N2CCCC(c3n[nH]cc3C(=O)N(C)C)C2)cc1", "stereo": "centres undefined", "B": 3.965}
{"compound": "O=C(O)CCn1ccc(=O)c2ccccc21", "A": -10.23, "B": 23.82, "C": -26.76}
{"compound": "Cc1nc(CNC(=O)N(CCCO)C2CCc3ccccc32)oc1C", "stereo": "centres undefined", "A": 0.3986, "B": 21.1, "C": -11.79}
{"compound": "COc1ccccc1[C@@H]1CN(CC2CCC2)C[C@H]1C(=O)O", "A": -15.48, "B": 22.65, "C": 0.9438}
{"compound": "CC(C(N)=O)N1CCN(c2ncc(Cl)cn2)CC1", "stereo": "centres undefined", "A": -37.39, "B": 12.21, "C": 4.705}
{"compound": "CC(=O)c1ccc(F)cc1-c1cc(NCCO)nc2[nH]ccc12", "A": -43.6, "B": 6.445, "C": -47.07}
{"compound": "CC(=O)NCCc1ccc(C(=O)N2CCCC2c2cnn(C)c2)cc1", "stereo": "centres undefined", "A": -14.69, "B": 1.096, "C": 1.318}
{"compound": "Cc1csc2c(C3CCCN(C(=O)CCCn4cncn4)C3)nc(C)n12", "stereo": "centres undefined", "A": -3.413, "B": 5.516, "C": 5.799}
{"compound": "COCCn1cc2c(n1)C(CNC(=O)c1cc(C)[nH]c1C)OCC2", "stereo": "centres undefined", "A": 1.347, "B": 0.7206, "C": -7.2}
{"compound": "Cc1nn(C)cc1CN1CCc2nc3sccc3c(=O)n2CC1", "A": -0.2037, "B": 2.118, "C": -3.962}
{"compound": "Cc1cnccc1NCCn1ccnc1C1CCCCC1", "A": 14.95, "B": 15.09, "C": -0.9201}
{"compound": "CC(NCC(N)=O)c1c(F)cccc1Cl", "stereo": "centres undefined", "A": -31.03, "B": 61.56, "C": 0.6478}
{"compound": "COC(=O)[C@H](C)NC(=O)Cc1c(C)nc2c(c1C)c(=O)[nH]n2C", "A": -11.56, "B": 23.05, "C": -3.823}
{"compound": "CCc1ccc(C2COCCN2C(=O)Nc2ccc(C(N)=O)c(Cl)c2)o1", "stereo": "centres undefined", "A": -127.2, "B": -7.006, "C": 5.192}
{"compound": "O=C(O)[C@@H]1CN(C(=O)CCN2CCCCC2)C[C@H]1c1ccccc1", "A": 21.29, "B": 14.42, "C": -3.853}
{"compound": "CC(=O)NCCNC(=O)c1cnc(-c2ccccc2)nc1", "A": 4.091, "B": 24.56, "C": 0.6911}
{"compound": "CCN(CC)c1nc2sc(C(=O)NC(C)(C)C(=O)OC)cc2s1", "A": -6.654, "B": 15.41, "C": -7.557}
{"compound": "CCCc1nc(CN2CCCC2c2cnn(C)c2)cs1", "stereo": "centres undefined", "B": 14.5, "C": 10.79}
{"compound": "CN1CCCCC1CCC(=O)NCCCn1nccc1C1CC1", "stereo": "centres undefined", "A": 7.891, "B": 13.25, "C": 11.42}
{"compound": "COC(=O)c1ccccc1C(=O)N(CCN(C)C)Cc1sccc1C", "A": -100.3, "B": 19.17, "C": 5.326}

Once more, the final 4:

| Compound | A | B | C |
|---|---|---|---|
| `CCN(CC)c1nc2sc(C(=O)NC(C)(C)C(=O)OC)cc2s1` | -6.654 | 15.41 | -7.557 |
| `CCCc1nc(CN2CCCC2c2cnn(C)c2)cs1` (centres undefined) | - | 14.5 | 10.79 |
| `CN1CCCCC1CCC(=O)NCCCn1nccc1C1CC1` (centres undefined) | 7.891 | 13.25 | 11.42 |
| `COC(=O)c1ccccc1C(=O)N(CCN(C)C)Cc1sccc1C` | -100.3 | 19.17 | 5.326 |